PubChem BioAssay AID504804 | Drosophila RNAi Screening Center | 2011
Aim: 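Knock-downs shielding fly cells from apoptosis caused by DNA damage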 (primary screen). Cell system: Drosophila Kc cells. Reagents: long dsRNA against Drosophila genes, 0.5 µg dsRNA per well. Duration: 96 h (48 h knock-down, then 48 h drug). Treatment: doxorubicin 5 µg/ml for 48 h, added 48 h after dsRNA. Read-out: 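Viability measured as cellular ATP by luminescence after 48 h knock-down then 48 h doxorubicin at 5 µg/ml; unnormalised plate counts for each replicate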. Direction: raw ATP luminescence: higher = more viable cells, protection from doxorubicin. Call rule: 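Active when both duplicate wells lie at least 2 SD above the plate mean and protection is confirmed by rescreening and independent dsRNAs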.
In all, the deposit lists about 19,000 reagents; shown is an unselected part of those that have a named target and a result. Over the whole deposit, 47 (0.25%) were called active. 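Signals are raw, not normalised; exact z-scores behind calls not deposited; actives needed confirmation, so some wells reaching 2 SD are inactive.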 A number with no mark means an inactive call. The numbers tell different reagents against one gene apart. No sequences are given here.

CG11357 | SD above plate mean = 2 to 3 SD above plate mean; raw ATP luminescence, replicate 1 = 1.06e5; raw ATP luminescence, replicate 2 = 1.30e5
slbo | raw ATP luminescence, replicate 1 = 44717; raw ATP luminescence, replicate 2 = 81293
CG15239 | raw ATP luminescence, replicate 1 = 31050; raw ATP luminescence, replicate 2 = 44410
CG3097 | raw ATP luminescence, replicate 1 = 34470; raw ATP luminescence, replicate 2 = 41160
Prosbeta6 | raw ATP luminescence, replicate 1 = 27377; raw ATP luminescence, replicate 2 = 23003
CG3819 | raw ATP luminescence, replicate 1 = 52173; raw ATP luminescence, replicate 2 = 57080
DCP1 | raw ATP luminescence, replicate 1 = 71887; raw ATP luminescence, replicate 2 = 71657
CG2865 | raw ATP luminescence, replicate 1 = 54080; raw ATP luminescence, replicate 2 = 83950
Ugt303B1 | raw ATP luminescence, replicate 1 = 48790; raw ATP luminescence, replicate 2 = 49780
CG5500 | raw ATP luminescence, replicate 1 = 63300; raw ATP luminescence, replicate 2 = 38990
mRpL51 | raw ATP luminescence, replicate 1 = 77280; raw ATP luminescence, replicate 2 = 60313
Smu1 | raw ATP luminescence, replicate 1 = 60943; raw ATP luminescence, replicate 2 = 83177
nSMase | raw ATP luminescence, replicate 1 = 40707; raw ATP luminescence, replicate 2 = 30270
CG3792 | raw ATP luminescence, replicate 1 = 34803; raw ATP luminescence, replicate 2 = 31867
B9d1 | raw ATP luminescence, replicate 1 = 84090; raw ATP luminescence, replicate 2 = 61620
CG15443 | raw ATP luminescence, replicate 1 = 28847; raw ATP luminescence, replicate 2 = 26747
CG13284 | raw ATP luminescence, replicate 1 = 49760; raw ATP luminescence, replicate 2 = 60187
Or98b | raw ATP luminescence, replicate 1 = 42680; raw ATP luminescence, replicate 2 = 41450
CG18258 | raw ATP luminescence, replicate 1 = 2.07e5; raw ATP luminescence, replicate 2 = 2.51e5
CG15579 | raw ATP luminescence, replicate 1 = 37750; raw ATP luminescence, replicate 2 = 49740
CG33308 | raw ATP luminescence, replicate 1 = 2.94e5; raw ATP luminescence, replicate 2 = 2.49e5
Top3alpha | raw ATP luminescence, replicate 1 = 75470; raw ATP luminescence, replicate 2 = 55127
Acp36DE | raw ATP luminescence, replicate 1 = 59620; raw ATP luminescence, replicate 2 = 74667
CG32365 #1 | raw ATP luminescence, replicate 1 = 80520; raw ATP luminescence, replicate 2 = 84540
CG32365 #2 | raw ATP luminescence, replicate 1 = 43553; raw ATP luminescence, replicate 2 = 52293
CG32365 #3 | raw ATP luminescence, replicate 1 = 47073; raw ATP luminescence, replicate 2 = 48527
LSm1 | raw ATP luminescence, replicate 1 = 43800; raw ATP luminescence, replicate 2 = 47800
CG7550 | raw ATP luminescence, replicate 1 = 70913; raw ATP luminescence, replicate 2 = 78573

Quoted from above (2 entries):
Smu1 | raw ATP luminescence, replicate 1 = 60943; raw ATP luminescence, replicate 2 = 83177
nSMase | raw ATP luminescence, replicate 1 = 40707; raw ATP luminescence, replicate 2 = 30270
